Experiment [1] addresses PD-L1 on 293T cells (UniProt Q9NZQ7). Nature of the experiment: flow cytometry on PD-L1-293T cells. In general terms: A flow cytometer gives signals particle by particle.
Experiment [2] has the same target. In words: flow cytometry on PD-L1-293T cells, MFI.
For experiment [3] the target is unchanged. In words: flow cytometry blocking: biotinylated PD-1 binding to PD-L1-293T cells, MFI.

The chains behind the UniProt entries cited, without tags or fusion partners. Residues count along the entry.
UniProt Q9NZQ7, residues 19-290: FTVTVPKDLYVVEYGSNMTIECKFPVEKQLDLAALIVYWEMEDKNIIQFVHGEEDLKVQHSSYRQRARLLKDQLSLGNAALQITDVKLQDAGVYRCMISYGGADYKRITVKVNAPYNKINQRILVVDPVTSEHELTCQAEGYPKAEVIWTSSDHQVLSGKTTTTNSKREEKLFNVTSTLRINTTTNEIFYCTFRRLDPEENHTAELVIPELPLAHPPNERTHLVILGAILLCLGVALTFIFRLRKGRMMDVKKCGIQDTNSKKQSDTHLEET

No constants are given. Whether binding was seen depends on the method and setting. Some results given as binding are weak or reduced against the parent protein; the word gives no strength.

B1: m7B4 (antibody, V domains shown)
VH: EVKLFESGGGLVQPGGSLKLSCVASGFDFSTYWMHWVRQAPGQGLEWIGQINPDSTTINYAPSLKDRFIISRDNAKNTLFLQMSKVRSEDTALYYCAKPGDYGYDFDCWGQGTTLTVSS
VL: DVLMTQTPLYLPVSLGDQASISCRSSQIIVHSNANTYLEWFLQKPGQSPKLLIYKVSNRFSGVPDRFSGSGSGTDFTLKISRVEAEDLGVYYCFQGSHVPYTFGGGTKLEIK
As to B1, the binding entry in experiment [1], in experiment [2] and in experiment [3] was “binds” in each case.

B2: m4A8 (antibody, V domains shown)
VH: QVQLKQSGPGLVQPSQSLSITCTVSGFSLTSYGVHWVRQSPGKGLEWLGVIWSGGITDYNAAFKSRLSISKDNSKSQVFFKMNSLQANDTAIYFCARLGFYAMDYWGQGTSVTVSS
VL: QIVLTQSPAIMSASPGEKVTMTCSANSSVSYMHWYQQKSGTSPKRWIYDTSKLASGVPARFSGSGSGTSYSLTISSMGAEDAATYYCQQWSSNPWTFGGGTKLEIK
On to B2, for which the binding entry in experiment [1], in experiment [2] and in experiment [3] was “binds” each time.

B3: m5G11 (antibody, V domains shown)
VH: QVQLKQSGPGLVQPSQSLSITCTVSGFSLTTYGVHWVRQSPGKGLEWLGVIWRGVTTDYNAAFMSRLTITKDNSKSQVFFKMNSLQANDTAIYYCARLGFYAMDYWGQGTSVTVSS
VL: SIVMTQTPKFLLVSAGDRVTITCKASQSVSNDVAWYQQKPGQSPKLLIYYAANRYTGVPDRFTGSGYGTDFTFTISIVQAEDLAVYFCQQDYTSPYTFGGGTKLEIK
Regarding B3, the binding result in experiment [1], in experiment [2] and in experiment [3] was “binds” throughout.

B4: m8C6 (antibody, V domains shown)
VH: QVQLKQSGPGLVQPSQSLSITCTVSGFSLTSYGVHWVRQSPGKGLEWLGVIWSGGVTDYNAAFISRLSISKDNSKSQVFFKMNSLQANDTAIYYCARLGFYAMDYWGQGTSVTVSS
VL: SIVMTQTPKFLLVSAGDRVTITCKASQSVSNDVGWYQQKPGQSPKLLIYYASNRYSGVPDRFTGSGYGTDFTFTISTVQAEDLAVYFCQQDYTSPYTFGGGTKLEIK
For B4, the binding entry in experiment [1], in experiment [2] and in experiment [3] was “binds” in each case.

B5: ch8C6-hIgG4 (antibody, V domains shown)
VH: QVQLKQSGPGLVQPSQSLSITCTVSGFSLTSYGVHWVRQSPGKGLEWLGVIWSGGVTDYNAAFISRLSISKDNSKSQVFFKMNSLQANDTAIYYCARLGFYAMDYWGQGTSVTVSS
VL: SIVMTQTPKFLLVSAGDRVTITCKASQSVSNDVGWYQQKPGQSPKLLIYYASNRYSGVPDRFTGSGYGTDFTFTISTVQAEDLAVYFCQQDYTSPYTFGGGTKLEIKR
With B5, the binding result in experiment [3] is recorded as “binds”.

B6: m15F1 (antibody, V domains shown)
VH: EEKLVESGGGLVKPGGSLKLSCAASGFSFSSYGMSWVRQTPEKRLEWVASISSGGSIYYPDSVKGRFTISRDNARNILYLQMSSLRSEDTAMYYCARGYDAGFAFWGQGTLVTASA
VL: DIVLTQSPASLAVSLGQRATISCRASQSVSTSSYSYVHWYQQKPGQPPKLLIKYASNLESGVPARFSGSGSGTDFTLNIHPVEEEDTATYYCQHSWEIPYTFGGGTKLEIK
Turning to B6, the binding entry in experiment [1], in experiment [2] and in experiment [3] was “binds” throughout.

B7: m8H4 (antibody, V domains shown)
VH: EVKLVESGGGLVKPGGSLKLSCAASGFTFRSYGMSWARQIPEKRLEWVASISSGGTTYYLGSVQGRFTISRDNARNILYLQMSSLRSEDTAMYYCARGYDAGFAYWGQGTLVSVSE
VL: DIVLTQSPASLAVSLGQRATISCRASQSVSTSSYSYMHWYQQKPGQPPKLLIKYASNLESGVPARFSGSGSGTDFTLNIHPVEEEDTATYYCQNSWEIPYTFGGGTKLEIK
On to B7, for which the binding entry in experiment [1], in experiment [2] and in experiment [3] was “binds” each time.

B8: m13C5 (antibody, V domains shown)
VH: EVKLVESGGGLVKPGGSLKLSCAASGFIFRSYGMSWVRQTPEKRLEWVASISSGGSTYYPDSVKGRFTISRDNARNILYLQMSSLRSEDTAMYDCARGYDSGFAYWGQGTLVTVSE
VL: DIVLTQSPASLAVSLGQRATISCRASQSVSTSSSSFMHWYQQKPGQPPKLLIKYASNLESGVPARFSGSGSGTDFTLNIHPVEEEDTATYYCQHSWEIPYTFGGGTKLEIKR
B8: the binding result in experiment [1], in experiment [2] and in experiment [3] was “binds” in each case.

B9: m5G9 (antibody, V domains shown)
VH: EVKLVESGGGLVKPGGSLKLSCAASGFTFRSYGMSWVRQTPEKRLEWVASISSGGTTYYPDSVKGRFIISRDNARNILYLQMSSLRSEDTAMYYCAKGYDSGFAYWGQGTLVIVSA
VL: DIVLTQSPPSLAVSLGQRATISCRASQSVSTSSSSYMHWYQQKPGQPPKLLIKYASNLESGVPARFSGSGSGTDFTLNIHPVEEEDTATYYCQHSWEIPYTFGGGTKLEIK
In the case of B9, the binding entry in experiment [1], in experiment [2] and in experiment [3] was “binds” in each case.

B10: ch8H4-hIgG4 (antibody, V domains shown)
VH: EVKLVESGGGLVKPGGSLKLSCAASGFTFRSYGMSWARQIPEKRLEWVASISSGGTTYYLGSVQGRFTISRDNARNILYLQMSSLRSEDTAMYYCARGYDAGFAYWGQGTLVSVSS
VL: DIVLTQSPASLAVSLGQRATISCRASQSVSTSSYSYMHWYQQKPGQPPKLLIKYASNLESGVPARFSGSGSGTDFTLNIHPVEEEDTATYYCQNSWEIPYTFGGGTKLEIKR
B10: in experiment [3], the binding entry is on record as “binds”.

Source of the values: patent US20170204184A1.
